At least one compound was matched to its structure with a doubt left.
Test system: carnitine palmitoyltransferase 1 (CPT1)
Test: qPCR expression of fat oxidation gene CPT1 in extracted fat tissue
Type: in vivo, C57BL6 mice
Details: mRNA, high-fat diet mice, compared to HFD group

## C[C@@H]1O[C@@H](OC[C@H]2O[C@@H](Oc3c(-c4ccc(O)c(O)c4)oc4cc(O)cc(O)c4c3=O)[C@H](O)[C@@H](O)[C@@H]2O)[C@H](O)[C@H](O)[C@H]1O [R, Rutin]
  expression level of CPT1: significant increase

— US20250268960A1, “COMPOSITION FOR PREVENTION AND TREATMENT OF OBESITY OR INSULIN RESISTANCE SYNDROME COMPRISING LACTOBACILLUS PLANTARUM HAC03 AND RUTIN” (HANDONG GLOBAL UNIVERSITY INDUSTRY-ACADEMIC COOPERATION …, priority 2023, published 2025)
